Data from PMC12040169 (PLOS Biology, 2025).
The list shows a part of the results.

system: T1, CTL2-GFP (C. trachomatis L2/434/Bu, GFP-expressing); parameters: species or system HeLa; Intracellular C. trachomatis growth in HeLa cells, bulk GFP fluorescence relative to DMSO; conditions: bulk GFP, single well; 28.5 h, 10 µM; inhibitor
T1 construct: L2/434/Bu, GFP-expressing

Q: Which “% of control remaining” value does the source give for `O=C1NC(=O)C(CCCCN2CCC[C@@H]2CN2CCCC2)N1` (stereo partly shown) [CBK149110] here?
A: The value was 106.443%.

Q: With `O=C(O)CCNC1CC(=O)N(Cc2ccccc2)C1=O` (stereo not shown) [CBK287246] as the compound, how does the “% of control remaining” value read?
A: Its value is 129.2%.

Q: With `CC(C)C(=O)Nc1ccc2c(-c3ccc4c(c3)CCO4)ccnc2n1` [CBK073672] as the compound, how does the “% of control remaining” value read?
A: Its value is 158.3%.

Q: How did the “% of control remaining” value turn out when `O=C(O)C1Cc2c([nH]c3ccccc23)C(c2cc(Br)ccc2O)N1` (stereo not shown) [CBK260946] was run?
A: Its value is 111.731%.

Q: Which “% of control remaining” value does the source give for `COc1cc(NC(=O)N2CCCCC2CO)cc(OC)c1OC` (stereo not shown) [CBK155986] here?
A: Its value is 78.4722%.

Q: For `Cc1csc(NC(=O)c2cccc(S(=O)(=O)NCC3CCCO3)c2)n1` (stereo not shown) [CBK305017], which “% of control remaining” value is on record?
A: Its value is 114.447%.

Q: Which “% of control remaining” value does the source give for `CN(CC(=O)N1CCC(Cc2ccccc2)CC1)S(=O)(=O)c1ccc2ccccc2c1` [CBK266931] here?
A: The value was 145.205%.

Q: `CCN(CC)C(=O)c1sc2ccccc2c1Cl` [CBK067853] was tested. Which “% of control remaining” value did it give?
A: Its value is 93.3446%.

Q: With `C/C(=N/O)c1ccc(OCCCOc2ccc(/C(C)=N/O)cc2)cc1` [CBK262075] as the compound, how does the “% of control remaining” value read?
A: The value was 104.153%.

Q: With `COc1ccc(-c2ccccc2)cc1NS(=O)(=O)c1ccc2c(c1)CCC(=O)N2` [CBK286368] as the compound, how does the “% of control remaining” value read?
A: The value was 96.3887%.

Q: `CC(C)(C)C(=O)N1CCC(n2nc(-c3cccs3)oc2=O)CC1` [CBK282423] was tested. Which “% of control remaining” value did it give?
A: Its value is 113.756%.

Q: For `Brc1ccc2[nH]c3c(c2c1)CCNC31CCN(CCOc2ccccc2)C1` (stereo not shown) [CBK083578], which “% of control remaining” value is on record?
A: The value was 81.0254%.

Q: `CC(C)NC(=O)N1CCC[C@@H](O)[C@H](NC(=O)c2ccc(OCc3ccccc3)cc2)C1` [CBK289063] was tested. Which “% of control remaining” value did it give?
A: The value was 101.864%.

Q: For `O=c1scnn1Cc1nc(-c2ccsc2)no1` [CBK306438], which “% of control remaining” value is on record?
A: The value was 126.311%.

Q: For `Clc1cccc(Cl)c1CN(Cc1ccccc1)c1ncnc2[nH]cnc12` [CBK266571], which “% of control remaining” value is on record?
A: The value was 118.273%.

Q: For `COc1ccc(C(NC(=O)C2CCN(C(=O)OC(C)C)CC2)c2ccccc2C)cn1` (stereo not shown) [CBK059704], which “% of control remaining” value is on record?
A: The value was 93.1739%.

Q: For `CC(C)[C@H]1CN(Cc2cc(C#N)n(C)c2)C[C@@H]1NC(=O)C1CCC1` [CBK306832], which “% of control remaining” value is on record?
A: Its value is 87.0775%.

Q: Which “% of control remaining” value does the source give for `O=C(O)C1CCN(c2ncnc3scc(-c4ccccc4)c23)CC1` [CBK076784] here?
A: Its value is 105.572%.

Q: How did the “% of control remaining” value turn out when `CNS(=O)(=O)c1cccc2c1CCN(C(=O)NC1CCOC1)C2` (stereo not shown) [CBK306172] was run?
A: Its value is 98.9425%.

Q: With `CN(C)CCN1CCN(c2cncc(-c3cccnc3)n2)CC1` [CBK065416] as the compound, how does the “% of control remaining” value read?
A: Its value is 132.665%.

Q: Which “% of control remaining” value does the source give for `Cc1ccc(C2=NN(C(=O)CNc3cc(F)cc(F)c3)C(c3ccco3)C2)cc1` (stereo not shown) [CBK297922] here?
A: Its value is 115.165%.

Q: For `O=C(/C=C\c1ccc(Cl)cc1Cl)N1CCN(Cc2ccc3c(c2)OCO3)CC1` [CBK074371], which “% of control remaining” value is on record?
A: The value was 54.6233%.

Q: Which “% of control remaining” value does the source give for `O=C(c1ccccc1)N1C[C@H](c2ccsc2)[C@H]2CN(Cc3ccsc3)CC[C@H]21` [CBK285604] here?
A: Its value is 77.2973%.

Q: Which “% of control remaining” value does the source give for `O=C(O)c1ccc(-c2ccc(/C=C/c3[nH]c(=O)[nH]c(=O)c3[N+](=O)[O-])o2)cc1` [CBK268055] here?
A: The value was 121.251%.

Q: How did the “% of control remaining” value turn out when `CC(=O)Nc1cccc(C(=O)OCC(=O)c2cccs2)c1` [CBK306040] was run?
A: The value was 85.3096%.

Q: With `COc1ccc(OCCCn2ccn(C(=O)CCCOc3ccc(Cl)cc3)c2=O)cc1` [CBK106662] as the compound, how does the “% of control remaining” value read?
A: The value was 137.216%.

Q: How did the “% of control remaining” value turn out when `CC1(C)CC(=O)C(=CNCC(N)=O)C(=O)C1` [CBK262520] was run?
A: The value was 100%.

Q: For `COc1ccc(C(=O)N2CCC3(CCN(Cc4cc(OC)c(OC)c(OC)c4)C3)C2)cc1OC` (stereo not shown) [CBK132149], which “% of control remaining” value is on record?
A: Its value is 127.86%.

Q: With `CCCn1ccnc1CN1CCCC(CC2CC2)(C(=O)O)C1` (stereo not shown) [CBK307205] as the compound, how does the “% of control remaining” value read?
A: The value was 80.5868%.

Q: Which “% of control remaining” value does the source give for `O=C(COc1cccc2ccccc12)NNC(=O)Cc1ccc(Cl)cc1` [CBK262988] here?
A: Its value is 98.2607%.

Q: With `Cc1nc[nH]c1CN(CCCn1ccnc1)CC1CC=CCC1` (stereo not shown) [CBK283218] as the compound, how does the “% of control remaining” value read?
A: The value was 130.944%.

Q: Which “% of control remaining” value does the source give for `COC(=O)c1ccc(Nc2cccc(-c3cccc(N)c3)n2)cc1OC` [CBK037619] here?
A: Its value is 105.072%.

Q: With `O=C(O)c1cc(S(=O)(=O)NCc2ccccc2)ccc1Br` [CBK261768] as the compound, how does the “% of control remaining” value read?
A: Its value is 107.317%.

Q: For `CCCc1[nH]nc(O)c1Cc1cccc(C)c1` [CBK075035], which “% of control remaining” value is on record?
A: The value was 100.348%.

Q: How did the “% of control remaining” value turn out when `Fc1ccc(-c2cn3ccnc3c(Nc3cccc(OC(F)(F)C(F)F)c3)n2)cc1Cl` [CBK037265] was run?
A: The value was 132.835%.

Q: `Cc1cnc(C)c(N2CCN(c3cc([C@H]4C[C@@H](N)C4)ncn3)CC2)n1` [CBK307118] was tested. Which “% of control remaining” value did it give?
A: Its value is 126.183%.

Q: How did the “% of control remaining” value turn out when `Cc1cc(CNC(=O)Cn2nc(C)c(C)c2C)on1` [CBK281487] was run?
A: Its value is 90.8839%.

Q: `CC(=O)N1CCC[C@H]2NC(=O)CNC(=O)C3(C/C=C/C[C@H]21)CCN(C(=O)C1CCC1)CC3` [CBK292177] was tested. Which “% of control remaining” value did it give?
A: The value was 101.151%.

Q: Which “% of control remaining” value does the source give for `OCCN1CSC(=S)N(CCc2ccc(Cl)cc2)C1` [CBK015713] here?
A: Its value is 120.219%.

Q: Which “% of control remaining” value does the source give for `Cn1c(SCc2ccc([N+](=O)[O-])cc2)nnc1-c1ccc(NC(=O)c2ccccc2Cl)cc1` [CBK265001] here?
A: Its value is 122.288%.

Q: Which “% of control remaining” value does the source give for `O=C(O)c1ccccc1S(=O)(=O)CC(=O)N1CCCCC1` [CBK287180] here?
A: The value was 91.1111%.

Q: `Cc1ccc(C2CCCN2C(=O)Cn2cccc(C(=O)NCc3ccccc3)c2=O)cc1C` (stereo not shown) [CBK286074] was tested. Which “% of control remaining” value did it give?
A: Its value is 110.527%.

Q: For `c1ccc2c(CCN3CCC(Oc4nccnc4OC4CCCCC4)CC3)c[nH]c2c1` [CBK082877T], which “% of control remaining” value is on record?
A: The value was 110.372%.

Q: How did the “% of control remaining” value turn out when `CC(C)(C)CC(=O)O/N=C(\N)c1ccccn1` [CBK265779] was run?
A: Its value is 120.031%.

Q: For `Cc1cc2ccccc2n2c(=O)n(CC(=O)N3CCCCC3C)nc12` (stereo not shown) [CBK283882], which “% of control remaining” value is on record?
A: Its value is 119.386%.

Q: For `COc1ccc(-c2cc(C(=O)Nc3ccccn3)cnc2-c2ccccc2)cn1` [CBK037519], which “% of control remaining” value is on record?
A: Its value is 139.468%.

Q: For `COc1ccc2c(c1)C1(CC(=O)N(Cc3ccccc3)C1=O)C(=O)N2CCn1cnc2c1c(=O)n(C)c(=O)n2C` (stereo not shown) [CBK075478], which “% of control remaining” value is on record?
A: Its value is 97.4105%.

Q: With `COCCNc1cccc(Cn2c(=O)n(C)c3c2c(=O)nc(OC)n3C)c1` [CBK022052] as the compound, how does the “% of control remaining” value read?
A: The value was 107.246%.

Q: How did the “% of control remaining” value turn out when `FC(F)(F)c1nnc2ccc(N3CCN(Cc4ccsc4)CC3)nn12` [CBK305930] was run?
A: The value was 101.826%.
